Test results from PubChem BioAssay AID1487 (National Center for Advancing Translational Sciences (NCATS), 2009).
The list shows a part of the results. These are further read-outs of the screen, such as a control signal, another cell line or another target. No call is given for them. Compounds called inactive in the main read-out are mostly missing here. The note in brackets gives the kind of curve behind each potency; many fits are weak.

Test: qHTS Assay for Modulators of Lamin A Splicing
Settings: HeLa LMNA splicing GFP/RFP minigene ratio, 48 h
Method in brief: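 Read-out is the ratio of GFP to DsRed2 object intensity, acquired by 488 nm laser-scanning cytometry on HeLa lamin A-EGFP minigene reporter cells. Compound incubation 48 hrs at 37 °C in Opti-MEM with 2% FBS; DMSO 0.5% final.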

[1] = measured here: RFP viability control channel
[2] = measured here: GFP splicing reporter channel

Compound	AC50 [1]	AC50 [2]
COc1ccc(-n2c(=O)c(-c3ccccc3)nc3cnc(N4CCOCC4)nc32)cc1	20 µM [falling, partial curve, poor fit]	
COc1cccc(C(=O)Oc2cc3c4c(c2)C(C)=CC(C)(C)N4C(=O)C3=O)c1	25.1 µM [falling, single point]	35.5 µM [falling, single point]
CCOc1ccc(C(=O)C(CCC(CN(C)C)C(=O)c2ccc(OCC)cc2)CN(C)C)cc1 (stereo not given)	17.8 µM [falling, single point]	7.08 µM [falling, partial curve]
COc1ccccc1NC(=O)Cn1c(SCC(=O)NCc2ccccc2)nc2ccccc21		35.5 µM [falling, single point]
NS(=O)(=O)c1ccc(CCNC(=O)CN2CCN(c3ccc(F)cc3)CC2)cc1	35.5 µM [rising, partial curve]	22.4 µM [rising, partial curve, poor fit]
COc1ccc(CCC(=O)NCCc2csc(-c3cccc(F)c3)n2)cc1	35.5 µM [rising, single point]	35.5 µM [rising, single point]
Cc1ccc(NS(=O)(=O)c2ccc(NC(=O)C(C)Sc3ccc(Cl)cc3)cc2)c(C)c1 (stereo not given)		31.6 µM [falling, single point]
COCCCNC(=O)c1c(N)n(/N=C/c2ccccn2)c2nc3ccccc3nc12	10 µM [rising, partial curve, poor fit]	
COc1ccc(CNC(=O)C2CCCN(S(=O)(=O)c3cc(C)ccc3OC)C2)cc1 (stereo not given)	14.1 µM [rising, single point]	
CC(=O)N(C(C)=O)N1C(=O)/C(=C/c2ccc(Cl)cc2)SC1=S	0.00316 µM [falling, full curve, poor fit]	
Cc1cc(-c2n[nH]c(=S)n2/N=C/C(Br)=C/c2ccccc2)n[nH]1	15.8 µM [rising, partial curve]	
CC[C@H](CO)NCCN[C@@H](CC)CO	0.0126 µM [rising, full curve, poor fit]	
COc1ccc(CC(=O)Nc2cccc(-c3csc(C)n3)c2)cc1	25.1 µM [rising, single point]	
Cc1cc(C)c(NC(=O)C[C@H](CC(=O)O)c2cccc3ccccc23)c(C(=O)N2CCC3(CCCC3)CC2)c1	0.00562 µM [falling, full curve, poor fit]	
O=S(=O)(c1ccc2ccccc2c1)N(CC(O)COCc1ccco1)c1ccccc1 (stereo not given)	28.2 µM [rising, single point]	12.6 µM [rising, single point]
Cc1c(Cl)ccc2sc(NC(=O)c3ccc(S(=O)(=O)N4CCCc5ccccc54)cc3)nc12	3.16 µM [rising, partial curve]	1.41 µM [rising, full curve]
O=C(Nc1nnc(-c2ccc(F)cc2)o1)c1cc(Cl)sc1Cl	4.47 µM [rising, full curve]	8.91 µM [rising, partial curve]

Reformatted in markdown: part of the list above.

| Compound | AC50 [1] | AC50 [2] |
| --- | --- | --- |
| COCCCNC(=O)c1c(N)n(/N=C/c2ccccn2)c2nc3ccccc3nc12 | 10 µM [rising, partial curve, poor fit] |  |
| COc1ccc(CNC(=O)C2CCCN(S(=O)(=O)c3cc(C)ccc3OC)C2)cc1 (stereo not given) | 14.1 µM [rising, single point] |  |
| CC(=O)N(C(C)=O)N1C(=O)/C(=C/c2ccc(Cl)cc2)SC1=S | 0.00316 µM [falling, full curve, poor fit] |  |
| Cc1cc(-c2n[nH]c(=S)n2/N=C/C(Br)=C/c2ccccc2)n[nH]1 | 15.8 µM [rising, partial curve] |  |
| CC[C@H](CO)NCCN[C@@H](CC)CO | 0.0126 µM [rising, full curve, poor fit] |  |
| COc1ccc(CC(=O)Nc2cccc(-c3csc(C)n3)c2)cc1 | 25.1 µM [rising, single point] |  |

Additional entries follow:

Compound	AC50 [1]	AC50 [2]
CCCCOC(=O)c1ccc(NC(=O)c2cc(Cl)c(Cl)cc2C(=O)O)cc1		0.708 µM [falling, partial curve, poor fit]
CC(=O)c1c(C(C)=O)c(C)n(-c2nc(-c3ccc(C)c(C)c3)c(C)s2)c1C	12.6 µM [rising, partial curve, poor fit]	
COc1ccccc1CNc1cc(-c2ccccc2C(F)(F)F)ncn1	1.26 µM [falling, partial curve]	0.891 µM [falling, full curve]
CCn1c(=O)cc(OCC(=O)Nc2ccc(OC)c(OC)c2)c2ccccc21		12.6 µM [falling, single point]
CCOC(=O)c1ccc(NC(=O)c2cccc(S(=O)(=O)N3c4ccccc4CC3C)c2)s1 (stereo not given)	31.6 µM [rising, single point]	17.8 µM [rising, single point]
CSc1nccc(-c2cc(Cl)sc2Cl)n1	35.5 µM [falling, single point]	
O=C(CSc1nccn1Cc1ccccc1)NCc1ccc(F)cc1	0.708 µM [rising, partial curve, poor fit]	0.708 µM [rising, single point]
CCn1c(SCc2ccccc2)nnc1-c1ccc(S(=O)(=O)N2CCCCC2)cc1	17.8 µM [rising, partial curve]	
COc1ccc(NC(=O)/C=C/c2cccc(F)c2)cn1	12.6 µM [rising, partial curve]	12.6 µM [rising, partial curve]
C=CCNc1nc(Nc2ccc(OC)cc2OC)nc(OCC)n1	17.8 µM [rising, single point]	15.8 µM [rising, single point]
O=C(CNS(=O)(=O)c1ccc(Br)s1)NCC1COc2ccccc2O1 (stereo not given)	15.8 µM [rising, single point]	17.8 µM [rising, single point]
O=C(NCc1ccco1)c1cc2nc(-c3ccc4c(c3)OCO4)cc(C(F)(F)F)n2n1	10 µM [rising, partial curve]	12.6 µM [rising, partial curve]
Oc1ccc(-c2nc3ccccn3c2NCc2ccco2)cc1	11.2 µM [rising, single point]	14.1 µM [rising, single point]
O=C(c1ccc(CSc2ccccc2)cc1)N1CCN(c2ccccc2)CC1		35.5 µM [falling, single point]
Oc1ccc(COCc2ccccc2)c2cccnc12	0.562 µM [falling, full curve]	1.26 µM [falling, full curve]
COC(=O)c1ccc2nc(C(F)(F)F)[nH]c2c1	15.8 µM [rising, partial curve]	20 µM [rising, partial curve, poor fit]
